Reference: the supplement of paper PMC12823440, “Inhibitors supercharge kinase turnover through native proteolytic circuits” (Nature, 2025)
This is one part of the list. Hit calls seldom repeat between salt and free forms of one compound.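 Kinases were expressed as nanoluciferase fusions in K562 cells and luminescence was read every 4 h between 2 and 18 h as percent of control, DMSO set to 100% and a positive control to 0%. A time point counts as decreased when the signal drops significantly (2 sigma). The hit call is the authors' own, does not follow from the count of time points alone, and its rule is not shown.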

Sequences of proteins named here, by UniProt entry; tags and fusion partners are left off. A change or cut given only in a name is not applied to a line headed by its entry.
UniProt Q9UM73: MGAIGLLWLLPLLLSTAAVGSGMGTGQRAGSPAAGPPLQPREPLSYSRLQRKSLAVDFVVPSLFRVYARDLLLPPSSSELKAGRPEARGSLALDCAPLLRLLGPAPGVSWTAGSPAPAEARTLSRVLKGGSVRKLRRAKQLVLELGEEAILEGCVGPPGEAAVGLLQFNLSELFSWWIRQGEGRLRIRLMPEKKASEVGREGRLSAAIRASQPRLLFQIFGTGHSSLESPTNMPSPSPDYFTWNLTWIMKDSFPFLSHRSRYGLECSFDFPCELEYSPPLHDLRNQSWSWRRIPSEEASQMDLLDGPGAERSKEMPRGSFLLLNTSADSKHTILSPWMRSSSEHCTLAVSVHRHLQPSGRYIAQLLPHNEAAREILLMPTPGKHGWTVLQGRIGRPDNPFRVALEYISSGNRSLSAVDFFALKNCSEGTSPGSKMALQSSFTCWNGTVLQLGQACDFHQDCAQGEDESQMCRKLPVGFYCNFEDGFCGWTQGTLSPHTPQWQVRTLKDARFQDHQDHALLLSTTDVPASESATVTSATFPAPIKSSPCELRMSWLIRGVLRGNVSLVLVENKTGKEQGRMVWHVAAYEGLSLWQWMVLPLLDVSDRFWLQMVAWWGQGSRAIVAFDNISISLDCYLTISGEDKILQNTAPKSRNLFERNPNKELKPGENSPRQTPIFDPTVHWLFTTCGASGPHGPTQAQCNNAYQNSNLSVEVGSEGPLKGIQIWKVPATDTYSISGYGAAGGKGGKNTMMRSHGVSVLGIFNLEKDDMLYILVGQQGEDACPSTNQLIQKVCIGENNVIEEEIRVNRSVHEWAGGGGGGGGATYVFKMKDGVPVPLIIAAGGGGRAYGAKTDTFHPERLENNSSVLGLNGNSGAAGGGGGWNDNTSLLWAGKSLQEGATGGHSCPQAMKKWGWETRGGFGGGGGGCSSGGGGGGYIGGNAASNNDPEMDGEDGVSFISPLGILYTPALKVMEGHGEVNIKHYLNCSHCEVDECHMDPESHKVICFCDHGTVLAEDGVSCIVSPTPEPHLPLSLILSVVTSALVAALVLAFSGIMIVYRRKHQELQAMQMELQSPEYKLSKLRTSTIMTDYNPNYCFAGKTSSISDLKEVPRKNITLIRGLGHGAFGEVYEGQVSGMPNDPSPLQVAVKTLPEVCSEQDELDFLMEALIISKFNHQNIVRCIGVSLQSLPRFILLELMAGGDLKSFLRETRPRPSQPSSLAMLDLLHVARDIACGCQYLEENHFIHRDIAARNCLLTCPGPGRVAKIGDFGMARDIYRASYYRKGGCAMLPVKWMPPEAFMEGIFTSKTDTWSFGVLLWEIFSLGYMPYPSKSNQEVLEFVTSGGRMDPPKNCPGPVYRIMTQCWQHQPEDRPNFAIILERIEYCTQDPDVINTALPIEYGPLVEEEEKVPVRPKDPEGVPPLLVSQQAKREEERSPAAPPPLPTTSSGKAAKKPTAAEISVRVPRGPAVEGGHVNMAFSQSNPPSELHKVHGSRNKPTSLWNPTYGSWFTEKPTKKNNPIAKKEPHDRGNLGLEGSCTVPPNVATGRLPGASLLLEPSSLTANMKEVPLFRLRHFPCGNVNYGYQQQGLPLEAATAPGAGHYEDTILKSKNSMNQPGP
UniProt P10398: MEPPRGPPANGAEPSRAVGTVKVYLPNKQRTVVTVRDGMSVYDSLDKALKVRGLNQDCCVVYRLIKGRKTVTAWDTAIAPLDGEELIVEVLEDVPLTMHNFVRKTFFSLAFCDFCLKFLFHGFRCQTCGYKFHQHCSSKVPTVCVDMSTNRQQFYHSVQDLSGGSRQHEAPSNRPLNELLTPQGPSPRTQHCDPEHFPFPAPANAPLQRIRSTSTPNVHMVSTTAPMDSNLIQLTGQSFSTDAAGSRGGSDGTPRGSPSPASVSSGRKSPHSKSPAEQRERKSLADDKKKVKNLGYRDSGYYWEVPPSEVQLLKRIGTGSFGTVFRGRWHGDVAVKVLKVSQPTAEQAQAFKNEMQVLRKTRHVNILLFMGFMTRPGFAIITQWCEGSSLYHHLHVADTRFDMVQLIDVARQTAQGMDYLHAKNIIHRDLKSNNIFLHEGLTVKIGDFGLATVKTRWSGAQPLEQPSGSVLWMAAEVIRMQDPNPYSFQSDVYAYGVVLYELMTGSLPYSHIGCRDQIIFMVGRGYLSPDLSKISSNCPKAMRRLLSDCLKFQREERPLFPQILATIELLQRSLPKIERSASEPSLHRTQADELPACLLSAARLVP
UniProt O14965: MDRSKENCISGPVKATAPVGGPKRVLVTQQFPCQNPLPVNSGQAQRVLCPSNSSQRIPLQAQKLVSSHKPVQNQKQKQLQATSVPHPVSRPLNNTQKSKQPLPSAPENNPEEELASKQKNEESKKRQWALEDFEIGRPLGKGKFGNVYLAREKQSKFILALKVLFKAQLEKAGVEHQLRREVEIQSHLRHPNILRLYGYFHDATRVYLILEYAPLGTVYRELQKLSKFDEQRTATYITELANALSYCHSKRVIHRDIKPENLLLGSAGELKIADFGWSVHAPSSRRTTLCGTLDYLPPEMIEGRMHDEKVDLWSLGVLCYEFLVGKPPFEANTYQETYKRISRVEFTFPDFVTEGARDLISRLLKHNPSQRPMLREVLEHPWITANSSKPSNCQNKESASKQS
UniProt Q96GD4, whole entry: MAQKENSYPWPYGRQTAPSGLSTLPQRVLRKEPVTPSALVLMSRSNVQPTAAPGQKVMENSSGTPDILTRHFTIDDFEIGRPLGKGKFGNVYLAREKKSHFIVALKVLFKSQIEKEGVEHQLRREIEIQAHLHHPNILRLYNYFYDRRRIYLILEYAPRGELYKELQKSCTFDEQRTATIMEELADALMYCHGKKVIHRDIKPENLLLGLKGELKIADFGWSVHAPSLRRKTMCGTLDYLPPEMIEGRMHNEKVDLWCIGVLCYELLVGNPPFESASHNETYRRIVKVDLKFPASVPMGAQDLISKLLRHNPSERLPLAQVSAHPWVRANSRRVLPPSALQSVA
UniProt Q9UQB9: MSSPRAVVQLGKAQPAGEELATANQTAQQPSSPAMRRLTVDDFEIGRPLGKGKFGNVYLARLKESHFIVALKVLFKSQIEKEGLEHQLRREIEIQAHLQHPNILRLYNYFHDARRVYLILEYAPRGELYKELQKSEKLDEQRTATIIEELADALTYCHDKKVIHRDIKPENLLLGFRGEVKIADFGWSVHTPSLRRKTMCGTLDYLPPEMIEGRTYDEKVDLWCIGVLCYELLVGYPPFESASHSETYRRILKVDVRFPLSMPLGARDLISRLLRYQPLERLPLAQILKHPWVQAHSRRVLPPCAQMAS
UniProt P51451: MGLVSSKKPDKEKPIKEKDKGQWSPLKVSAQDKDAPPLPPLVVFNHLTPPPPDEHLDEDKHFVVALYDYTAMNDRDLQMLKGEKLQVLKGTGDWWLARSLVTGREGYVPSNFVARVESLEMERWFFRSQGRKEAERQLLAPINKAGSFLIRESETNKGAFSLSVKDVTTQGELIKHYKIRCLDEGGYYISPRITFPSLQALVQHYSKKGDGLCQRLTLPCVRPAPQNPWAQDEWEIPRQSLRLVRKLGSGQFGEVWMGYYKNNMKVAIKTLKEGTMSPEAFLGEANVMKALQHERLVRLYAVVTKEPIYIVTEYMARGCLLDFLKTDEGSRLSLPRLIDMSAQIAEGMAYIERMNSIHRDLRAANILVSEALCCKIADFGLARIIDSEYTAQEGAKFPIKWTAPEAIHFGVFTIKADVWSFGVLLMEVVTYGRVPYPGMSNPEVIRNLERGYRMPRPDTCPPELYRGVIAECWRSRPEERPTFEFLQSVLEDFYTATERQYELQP
UniProt P15056, whole entry, looked up: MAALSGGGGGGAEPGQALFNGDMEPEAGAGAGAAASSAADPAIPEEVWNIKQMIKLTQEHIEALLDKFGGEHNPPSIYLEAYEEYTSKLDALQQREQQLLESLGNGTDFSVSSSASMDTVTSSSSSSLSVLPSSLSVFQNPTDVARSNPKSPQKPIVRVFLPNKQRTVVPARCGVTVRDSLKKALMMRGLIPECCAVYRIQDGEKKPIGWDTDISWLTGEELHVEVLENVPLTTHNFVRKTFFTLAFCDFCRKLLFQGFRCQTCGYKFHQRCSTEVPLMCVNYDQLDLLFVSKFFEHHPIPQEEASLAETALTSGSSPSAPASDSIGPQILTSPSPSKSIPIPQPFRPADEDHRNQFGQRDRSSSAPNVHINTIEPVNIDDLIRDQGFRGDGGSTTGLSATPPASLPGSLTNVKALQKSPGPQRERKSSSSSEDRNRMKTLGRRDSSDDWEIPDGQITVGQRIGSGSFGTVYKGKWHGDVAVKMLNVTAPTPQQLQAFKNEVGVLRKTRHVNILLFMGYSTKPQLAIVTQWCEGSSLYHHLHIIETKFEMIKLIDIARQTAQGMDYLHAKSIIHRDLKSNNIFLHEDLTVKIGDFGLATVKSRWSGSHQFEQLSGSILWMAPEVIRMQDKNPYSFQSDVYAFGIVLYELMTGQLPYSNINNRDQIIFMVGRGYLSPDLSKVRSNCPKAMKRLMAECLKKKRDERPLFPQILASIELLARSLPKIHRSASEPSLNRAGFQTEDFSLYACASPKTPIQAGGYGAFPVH
UniProt Q9UQM7, whole entry: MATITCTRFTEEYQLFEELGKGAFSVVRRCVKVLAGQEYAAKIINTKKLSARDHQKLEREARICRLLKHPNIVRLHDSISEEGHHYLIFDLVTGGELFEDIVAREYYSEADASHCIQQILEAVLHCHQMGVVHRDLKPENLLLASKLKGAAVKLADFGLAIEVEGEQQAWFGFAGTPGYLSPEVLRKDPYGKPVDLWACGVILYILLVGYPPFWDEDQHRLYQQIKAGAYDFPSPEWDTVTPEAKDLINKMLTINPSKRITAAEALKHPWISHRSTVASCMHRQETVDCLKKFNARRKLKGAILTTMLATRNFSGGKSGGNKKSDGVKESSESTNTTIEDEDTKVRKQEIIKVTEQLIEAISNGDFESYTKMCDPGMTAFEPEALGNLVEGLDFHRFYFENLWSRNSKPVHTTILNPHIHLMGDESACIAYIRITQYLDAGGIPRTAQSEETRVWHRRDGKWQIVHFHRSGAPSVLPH
UniProt Q15131: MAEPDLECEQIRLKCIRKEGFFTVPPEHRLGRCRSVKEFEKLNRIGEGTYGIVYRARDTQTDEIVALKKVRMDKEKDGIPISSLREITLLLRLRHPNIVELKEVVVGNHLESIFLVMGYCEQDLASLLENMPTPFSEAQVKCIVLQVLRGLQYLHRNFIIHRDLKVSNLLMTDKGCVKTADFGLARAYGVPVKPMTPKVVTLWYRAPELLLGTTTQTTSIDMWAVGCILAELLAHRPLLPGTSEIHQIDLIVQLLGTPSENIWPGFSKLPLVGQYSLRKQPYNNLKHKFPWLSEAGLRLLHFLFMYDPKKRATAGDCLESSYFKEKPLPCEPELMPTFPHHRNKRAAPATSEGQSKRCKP
UniProt Q00526: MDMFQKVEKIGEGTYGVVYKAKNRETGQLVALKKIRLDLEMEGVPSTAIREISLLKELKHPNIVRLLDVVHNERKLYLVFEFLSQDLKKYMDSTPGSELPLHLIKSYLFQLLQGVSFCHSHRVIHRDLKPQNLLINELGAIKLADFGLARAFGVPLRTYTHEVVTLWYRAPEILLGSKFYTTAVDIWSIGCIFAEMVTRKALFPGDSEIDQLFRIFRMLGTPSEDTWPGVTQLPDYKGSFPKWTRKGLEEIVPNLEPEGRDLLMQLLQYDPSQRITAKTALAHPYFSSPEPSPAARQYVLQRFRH
UniProt Q00534, whole entry: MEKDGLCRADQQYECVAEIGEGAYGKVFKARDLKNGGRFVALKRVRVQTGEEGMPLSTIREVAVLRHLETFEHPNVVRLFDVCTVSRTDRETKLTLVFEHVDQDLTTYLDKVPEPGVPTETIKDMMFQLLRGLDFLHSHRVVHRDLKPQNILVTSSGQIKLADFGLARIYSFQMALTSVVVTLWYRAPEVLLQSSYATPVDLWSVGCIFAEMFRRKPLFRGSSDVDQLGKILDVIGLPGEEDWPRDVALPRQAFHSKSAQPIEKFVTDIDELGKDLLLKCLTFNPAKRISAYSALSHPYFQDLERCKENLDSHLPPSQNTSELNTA
UniProt O96017, whole entry: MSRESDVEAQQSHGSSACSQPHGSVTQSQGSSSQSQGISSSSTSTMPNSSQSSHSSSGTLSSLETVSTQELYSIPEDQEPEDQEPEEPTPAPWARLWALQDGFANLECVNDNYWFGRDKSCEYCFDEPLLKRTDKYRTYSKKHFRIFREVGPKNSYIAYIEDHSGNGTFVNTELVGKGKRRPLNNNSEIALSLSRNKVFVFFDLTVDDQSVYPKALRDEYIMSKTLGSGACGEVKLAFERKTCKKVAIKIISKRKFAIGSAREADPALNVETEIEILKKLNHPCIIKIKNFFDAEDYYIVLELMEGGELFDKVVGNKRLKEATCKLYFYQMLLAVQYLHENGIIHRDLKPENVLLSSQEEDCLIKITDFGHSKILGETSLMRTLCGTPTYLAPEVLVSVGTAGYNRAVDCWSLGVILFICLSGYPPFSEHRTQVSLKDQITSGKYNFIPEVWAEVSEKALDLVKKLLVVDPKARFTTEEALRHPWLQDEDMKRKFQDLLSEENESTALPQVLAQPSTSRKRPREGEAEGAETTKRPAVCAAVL

Tests used:
Experiment in all cases: number of time points (of 5) at which kinase-Nluc abundance scored as decreased, DMSO-normalised (count); higher = more persistent destabilization
Conditions in all cases: K562; 2-18 h
[1] = molecular target: ALK (UniProt Q9UM73)
[2] = molecular target: ARAF (UniProt P10398)
[3] = molecular target: AURKA (UniProt O14965)
[4] = molecular target: AURKB (UniProt Q96GD4)
[5] = molecular target: AURKC (UniProt Q9UQB9)
[6] = molecular target: BLK (UniProt P51451)
[7] = molecular target: BMX (UniProt P51813)
[8] = molecular target: BRAF (UniProt P15056)
[9] = tested on: BRAF_V600E
[10] = molecular target: BTK (UniProt Q06187)
[11] = molecular target: CAMK2A (UniProt Q9UQM7)
[12] = molecular target: CAMK2G (UniProt Q13555)
[13] = molecular target: CDK10 (UniProt Q15131)
[14] = molecular target: CDK2 (UniProt P24941)
[15] = molecular target: CDK3 (UniProt Q00526)
[16] = molecular target: CDK5 (UniProt Q00535)
[17] = molecular target: CDK6 (UniProt Q00534)
[18] = molecular target: CHEK2 (UniProt O96017)
[19] = molecular target: CSF1R (UniProt P07333)
[20] = molecular target: CSK (UniProt P41240)

Compound	number of time points [1]	number of time points [2]	number of time points [3]	number of time points [4]	number of time points [5]	number of time points [6]	number of time points [7]	number of time points [8]	number of time points [9]	number of time points [10]	number of time points [11]	number of time points [12]	number of time points [13]	number of time points [14]	number of time points [15]	number of time points [16]	number of time points [17]	number of time points [18]	number of time points [19]	number of time points [20]
COc1cc(-c2cc(-c3ccc(N4CCNCC4)cc3)cnc2C)cc(OC)c1OC (10 µM)	0	0	0	0	0	0	0	0	0	0	0	0	0	0	0	0	0	0	0	0
COc1cc2c(cc1O)C[C@H]1c3cc(O)c(OC)cc3CC[N@@+]1(C)C2 [Phellodendrine] (10 µM)	0	0	0	0	0	0	0	0	0	0	0	0	0	0	0	0	0	0	0	0
Cc1cc(O)c2c(c1)C(=O)c1cccc(O)c1C2=O [Chrysophanol] (2 µM)	0	0	0	0	0	0	0	0	0	0	0	0	0	0	0	0	0	0	0	0
Brc1ccc(CSc2nc3ccccc3o2)cc1 [BMP signaling agonist sb4] (10 µM)	0	0	0	0	0	0	0	0	0	0	0	0	0	0	0	0	0	0	0	0
N#Cc1ccc(-c2cnc3[nH]cc(NC(=O)c4cccnc4)c3c2)cc1 (10 µM)	0	0	0	0	0	0	0	0	0	0	0	0	0	0	0	0	0	0	0	0
O=C1OC(/C=C/c2ccccc2)=NC/1=C\c1cccnc1 (10 µM)	0	0	0	0	0	0	0	0	0	0	0	0	0	0	0	0	0	0	0	0
Cc1cc(C)cc(NC(N)=Nc2ccccc2C(F)(F)F)c1 (10 µM)	0	0	0	0	0	0	0	0	0	0	0	0	0	0	0	0	0	0	0	0
CC(C)CCN1c2nc(Nc3cc(F)c(O)c(F)c3)ncc2N(C)C(=O)C1C (stereo not given) (2.5 µM)	0	0	0	0	0	0	0	0	0	0	0	0	0	0	0	0	0	0	0	0
NCC1CCC(CNc2nc(NCc3ccccc3OC(F)(F)F)ncc2[N+](=O)[O-])CC1 (stereo not given) [PKC-theta inhibitor] (10 µM)	4	0	4	0	0	1	0	0	0	0	0	0	0	0	0	0	0	4	3	0
Cc1ccc(-n2nc(C(C)(C)C)cc2NC(=O)Nc2ccc(OCCN3CCOCC3)cc2)cc1 (10 µM)	0	0	0	0	0	0	0	0	0	0	0	0	0	0	0	0	0	0	0	0
N#C/C(=C\c1ccc(O)c(O)c1)C(=O)O [Tyrphostin AG30] (10 µM)	0	0	0	0	0	0	0	0	0	0	0	0	0	0	0	0	0	0	0	0
COc1ccc(Nc2ncc(C(F)(F)F)c(NC3CC3)n2)cc1OC (10 µM)	1	0	1	0	0	3	0	0	3	0	0	0	0	0	0	0	0	0	0	0
CNC(=O)c1ccc2c(c1)ncn2-c1ccc(CC(=O)OC(C)(C)C)cc1 (10 µM)	0	0	0	0	0	0	0	0	0	0	0	0	0	0	0	0	0	0	0	0
Nc1ncc(-c2ccnc(Nc3ccncc3)n2)c(CC2CC2)n1 (10 µM)	2	0	2	1	0	1	0	0	2	0	0	0	0	0	0	0	0	0	0	0
c1nn(C2CCOCC2)cc1Nc1ncc2nnn(-c3ccc4cn[nH]c4c3)c2n1 (10 µM)	0	0	0	0	0	0	0	0	0	0	0	0	0	0	0	0	0	0	0	0
Cc1cc(Nc2cc(N3CCN(C)CC3)nc(Nc3ccc([N+](=O)[O-])cc3)n2)n[nH]1 (2.5 µM)	1	0	0	0	0	0	4	0	0	0	0	0	0	0	0	0	0	1	0	0

Complete entries, quoted from the list. Values in the order: number of time points [1]	number of time points [2]	number of time points [3]	number of time points [4]	number of time points [5]	number of time points [6]	number of time points [7]	number of time points [8]	number of time points [9]	number of time points [10]	number of time points [11]	number of time points [12]	number of time points [13]	number of time points [14]	number of time points [15]	number of time points [16]	number of time points [17]	number of time points [18]	number of time points [19]	number of time points [20]
Cc1cc(Nc2cc(N3CCN(C)CC3)nc(Nc3ccc([N+](=O)[O-])cc3)n2)n[nH]1 (2.5 µM) is listed with 1	0	0	0	0	0	4	0	0	0	0	0	0	0	0	0	0	1	0	0
Cc1cc(C)cc(NC(N)=Nc2ccccc2C(F)(F)F)c1 (10 µM) is listed with 0	0	0	0	0	0	0	0	0	0	0	0	0	0	0	0	0	0	0	0
